Assay results from patent publication US20240309012A1, “ISOQUINOLINE COMPOUND, MANUFACTURING METHOD THEREFOR, AND APPLICATION THEREOF” (priority 2020, published 2024).
Some entries share one result that the patent states for a list of compounds.

Tests used:
Vero E6 cells = assay: Cytotoxicity test on Vero E6 cells by CCK8 kit; type: cell-based; settings: compared with berbamine hydrochloride
Protocol: In this example, the median toxic concentration (CC50) of each example on Vero E6 cells was analysed and determined by CCK8 kit.

[1] = system: 2019 novel coronavirus (SARS-CoV-2); assay: Inhibition of 2019 novel coronavirus (SARS-CoV-2) replication in Vero E6 cells, virus copy number by qRT-PCR; type: cell-based

SMILES | Cytotoxicity on Vero E6 cells (in words) (Vero E6 cells) | Inhibition of SARS-CoV-2 virus replication (in words) ([1]; Vero E6 cells) | EC50 as fraction of that of berbamine hydrochloride ([1]; relative to berbamine hydrochloride)
COc1cc2c3cc1Oc1c(OC)c(OC)cc4c1[C@@H](Cc1ccc(C=O)c(c1)Oc1ccc(cc1)C[C@@H]3N(C)CC2)N(C)CC4 [Compound 2] | weaker or comparable to that of berbamine hydrochloride |  | 
COc1cc2c3cc1Oc1c(OC)c(OC)cc4c1[C@@H](Cc1ccc(C#N)c(c1)Oc1ccc(cc1)C[C@@H]3N(C)CC2)N(C)CC4 [Compound 1] | weaker or comparable to that of berbamine hydrochloride |  | 
COc1cc2c3cc1Oc1c(OC)c(OC)cc4c1[C@@H](Cc1ccc(CO)c(c1)Oc1ccc(cc1)C[C@@H]3N(C)CC2)N(C)CC4 [Compound 3] | weaker or comparable to that of berbamine hydrochloride |  | 
COc1cc2c3cc1Oc1c(OC)c(OC)cc4c1[C@@H](Cc1ccc(OC(=O)CCCC[C@@H]5SC[C@@H]6NC(=O)N[C@@H]65)c(c1)Oc1ccc(cc1)C[C@@H]3N(C)CC2)N(C)CC4 [Compound 6] | weaker or comparable to that of berbamine hydrochloride |  | 
COc1cc2c3cc1Oc1c(OC)c(OC)cc4c1[C@@H](Cc1ccc(OC(=O)CCCC[C@H]5CCSS5)c(c1)Oc1ccc(cc1)C[C@@H]3N(C)CC2)N(C)CC4 [Compound 5] | weaker or comparable to that of berbamine hydrochloride |  | 
CCCCNC(=O)Oc1ccc2cc1Oc1ccc(cc1)C[C@H]1c3cc(c(OC)cc3CCN1C)Oc1c(OC)c(OC)cc3c1[C@@H](C2)N(C)CC3 [Compound 4] | weaker or comparable to that of berbamine hydrochloride | significantly inhibited | 1/10
